No constants are given. Whether binding was seen depends on the method and setting. Some entries that bind do so weakly or less than the wild type. Tags and fused reporters may be left off the sequences shown.
Assays:
[1] = molecular target: T1, FoxM1 printed on the human ProtoArray (human) (UniProt Q08050); test: peptide or protein array; Human ProtoArray Version 5.0 (~9500 recombinant proteins printed) probed with 80 ug purified His-SETD3 in probing buffer (0.1% Tween 20, 1% BSA, 10% PBS), 1.5 h; detected with anti-SETD3 and Alexa Fluor 647 anti-rabbit IgG; BSA-probed array as negative control; hits Z-score >3; two independent experiments; both purified
T1 sequence: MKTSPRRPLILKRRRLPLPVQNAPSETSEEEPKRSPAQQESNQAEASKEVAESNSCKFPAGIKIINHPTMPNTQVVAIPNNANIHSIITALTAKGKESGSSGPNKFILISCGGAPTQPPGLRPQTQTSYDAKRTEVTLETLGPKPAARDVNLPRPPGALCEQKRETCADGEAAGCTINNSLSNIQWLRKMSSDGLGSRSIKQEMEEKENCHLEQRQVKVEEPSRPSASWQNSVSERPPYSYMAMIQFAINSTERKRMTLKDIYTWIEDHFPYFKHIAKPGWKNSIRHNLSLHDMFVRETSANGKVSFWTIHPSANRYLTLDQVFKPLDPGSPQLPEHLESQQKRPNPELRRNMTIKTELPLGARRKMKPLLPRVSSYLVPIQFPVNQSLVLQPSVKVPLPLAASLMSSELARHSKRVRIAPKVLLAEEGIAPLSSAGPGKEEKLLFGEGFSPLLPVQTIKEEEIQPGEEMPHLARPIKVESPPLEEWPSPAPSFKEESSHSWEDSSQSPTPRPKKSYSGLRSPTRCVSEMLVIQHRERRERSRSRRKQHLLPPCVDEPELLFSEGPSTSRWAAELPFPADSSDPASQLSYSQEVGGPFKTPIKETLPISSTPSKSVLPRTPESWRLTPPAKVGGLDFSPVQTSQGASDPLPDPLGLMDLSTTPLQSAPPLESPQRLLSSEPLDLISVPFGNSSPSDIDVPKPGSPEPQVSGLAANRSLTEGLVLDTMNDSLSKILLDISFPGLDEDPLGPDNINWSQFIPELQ

[2] = molecular target: T2, recombinant His-sumo-FoxM1 (UniProt Q08050); test: ELISA; 2 ug His-sumo-FoxM1 coated on the plate, blocked with 3% BSA in PBST, 0.5 ug His-sumo-SETD3 added for 1 h; detected with anti-SETD3 and HRP secondary, A450; signal normalized to BSA; both purified
T2 sequence: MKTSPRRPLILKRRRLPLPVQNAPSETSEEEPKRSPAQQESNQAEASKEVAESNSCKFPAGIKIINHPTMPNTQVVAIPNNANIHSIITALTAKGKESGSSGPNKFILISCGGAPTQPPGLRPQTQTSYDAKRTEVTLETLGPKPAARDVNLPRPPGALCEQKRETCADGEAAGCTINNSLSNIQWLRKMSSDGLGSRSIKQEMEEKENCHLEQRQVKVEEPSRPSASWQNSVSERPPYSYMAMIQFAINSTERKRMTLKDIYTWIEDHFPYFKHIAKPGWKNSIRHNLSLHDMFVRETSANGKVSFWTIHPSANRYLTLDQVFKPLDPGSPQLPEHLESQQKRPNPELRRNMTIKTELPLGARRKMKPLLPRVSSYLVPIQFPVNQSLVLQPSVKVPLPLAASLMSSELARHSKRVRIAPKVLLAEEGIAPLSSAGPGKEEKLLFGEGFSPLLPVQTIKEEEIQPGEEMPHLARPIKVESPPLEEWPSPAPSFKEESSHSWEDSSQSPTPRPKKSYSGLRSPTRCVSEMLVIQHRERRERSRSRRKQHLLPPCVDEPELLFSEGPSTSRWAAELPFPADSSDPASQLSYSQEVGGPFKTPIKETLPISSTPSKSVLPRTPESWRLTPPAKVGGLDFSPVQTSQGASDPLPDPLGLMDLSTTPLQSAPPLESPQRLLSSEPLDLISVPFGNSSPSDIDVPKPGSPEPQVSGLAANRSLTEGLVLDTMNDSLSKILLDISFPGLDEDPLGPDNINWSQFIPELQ

| Binder | binding [1] | binding [2] |
| --- | --- | --- |
| recombinant His-SETD3 (enzyme, UniProt Q86TU7 1-594) MGKKSRVKTQKSGTGATATVSPKEILNLTSELLQKCSSPAPGPGKEWEEYVQIRTLVEKIRKKQKGLSVTFDGKREDYFPDLMKWASENGASVEGFEMVNFKEEGFGLRATRDIKAEELFLWVPRKLLMTVESAKNSVLGPLYSQDRILQAMGNIALAFHLLCERASPNSFWQPYIQTLPSEYDTPLYFEEDEVRYLQSTQAIHDVFSQYKNTARQYAYFYKVIQTHPHANKLPLKDSFTYEDYRWAVSSVMTRQNQIPTEDGSRVTLALIPLWDMCNHTNGLITTGYNLEDDRCECVALQDFRAGEQIYIFYGTRSNAEFVIHSGFFFDNNSHDRVKIKLGVSKSDRLYAMKAEVLARAGIPTSSVFALHFTEPPISAQLLAFLRVFCMTEEELKEHLLGDSAIDRIFTLGNSEFPVSWDNEVKLWTFLEDRASLLLKTYKTTIEEDKSVLKNHDLSVRAKMAIKLRLGEKEILEKAVKSAAVNREYYRQQMEEKAPLPKYEESNLGLLESSVGDSRLPLVLRNLEEEAGVQDALNIREAISKAKATENGLVNGENSIPNGTRSENESLNQESKRAVEDAKGSSSDSTAGVKE | binds |  |
| recombinant His-sumo-SETD3 (enzyme, UniProt Q86TU7 1-594) MGKKSRVKTQKSGTGATATVSPKEILNLTSELLQKCSSPAPGPGKEWEEYVQIRTLVEKIRKKQKGLSVTFDGKREDYFPDLMKWASENGASVEGFEMVNFKEEGFGLRATRDIKAEELFLWVPRKLLMTVESAKNSVLGPLYSQDRILQAMGNIALAFHLLCERASPNSFWQPYIQTLPSEYDTPLYFEEDEVRYLQSTQAIHDVFSQYKNTARQYAYFYKVIQTHPHANKLPLKDSFTYEDYRWAVSSVMTRQNQIPTEDGSRVTLALIPLWDMCNHTNGLITTGYNLEDDRCECVALQDFRAGEQIYIFYGTRSNAEFVIHSGFFFDNNSHDRVKIKLGVSKSDRLYAMKAEVLARAGIPTSSVFALHFTEPPISAQLLAFLRVFCMTEEELKEHLLGDSAIDRIFTLGNSEFPVSWDNEVKLWTFLEDRASLLLKTYKTTIEEDKSVLKNHDLSVRAKMAIKLRLGEKEILEKAVKSAAVNREYYRQQMEEKAPLPKYEESNLGLLESSVGDSRLPLVLRNLEEEAGVQDALNIREAISKAKATENGLVNGENSIPNGTRSENESLNQESKRAVEDAKGSSSDSTAGVKE |  | binds |

Reference: article PMC5109252
